Measured data: PubChem BioAssay AID1259254 (NCATS, 2017)
Shown is one part, drawn at random, of about 59,000 reagents. About 1,550 of them (2.6%) were called active. 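G2 share is only a proxy for re-replication; each gene was hit by three separate siRNAs, and active genes were retested.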 Unmarked entries are inactive. Not all columns of the deposit are shown. Reagent sequences are not shown. Not stated in the record: the amount of reagent.

Test: 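Gene knock-downs that lead to re-replication, shown by excess G2 DNA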 (primary screen)
Cells: human HCT116 colorectal cancer cells
Knock-down reagent: single siRNA against human genes
Duration: 3 days
Detection: 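Nuclei stained with Hoechst and imaged; cell-cycle phase assigned by DNA content; G2 share scaled per plate, non-targeting siRNA 0%, GMNN siRNA 100%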
Reading the numbers: G2 robust z-score: higher = more G2 cells, more excess DNA replication
Hit rule: 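Active siRNAs have a G2 robust z of 5 or more median absolute deviations over the median, which in these data means about 38% or higher of GMNN control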

CACNA1E [SID160731896]: G2 robust z-score = -1.08
CACNA1E [SID160735298]: G2 robust z-score = 0.86
CACNA1E [SID160735309]: G2 robust z-score = 0.125
AASS [SID160726249]: G2 robust z-score = -0.317
AASS [SID160726257]: G2 robust z-score = 0.613
AASS [SID160730409]: G2 robust z-score = 1.77
ZMIZ2 [SID160751255]: G2 robust z-score = -0.162
ZMIZ2 [SID160751256]: G2 robust z-score = 0.0985
ZMIZ2 [SID160751257]: G2 robust z-score = 0.183
PCDH20 [SID160748110]: G2 robust z-score = 0.371
PCDH20 [SID160748111]: G2 robust z-score = -0.247
PCDH20 [SID160748112]: G2 robust z-score = -0.881
SLC27A3 [SID160729710]: G2 robust z-score = 4.14
SLC27A3 [SID160729711]: G2 robust z-score = -0.179
SLC27A3 [SID160729712]: G2 robust z-score = -0.994
NMT1 [SID160778115]: G2 robust z-score = -0.00545
NMT1 [SID160778116]: G2 robust z-score = 0.068
NMT1 [SID160778117]: G2 robust z-score = -0.275
PAX7 [SID160713858]: G2 robust z-score = -0.105
PAX7 [SID160713859]: G2 robust z-score = 0.897
PAX7 [SID160713860]: G2 robust z-score = -0.31
TMEM184C [SID160744261]: G2 robust z-score = -0.281
TMEM184C [SID160744262]: G2 robust z-score = 0.619
TMEM184C [SID160744263]: G2 robust z-score = 0.037

3 successive entries from above, quoted:
CACNA1E [SID160735309]: G2 robust z-score = 0.125
AASS [SID160726249]: G2 robust z-score = -0.317
AASS [SID160726257]: G2 robust z-score = 0.613
